68 sequences from PubChem BioAssay AID1508600 (Functional Genomics Laboratory (NCATS/FGL), 2020) can be followed below.

Screen size: about 53,000 sequences; about 3,700 (7%) were called active.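 Rule for the calls: active = gene knockdowns whose robust z-score for IL-1 alpha signal is at least 2 or at most -2, so actives lie on both sides; inactive = the rest.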 The list shows a part of the results.

The nature of this test: Components of the Cytosolic LPS Sensing Pathway: Gene Identification via Genome-wide siRNA Screen.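 Note: robust z of the log signal after scaling to non-targeting control siRNA wells of the plate.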 The note with it: RAW264.7 macrophages, IL-1a HTRF, actives lie on both sides, screened at 100 nM (by protocol), cells primed 5 h with Pam3CSK4 first. The method, boiled down: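 RAW264.7 mouse macrophages reverse-transfected with single siRNAs (100 nM final) for 48h, primed with Pam3CSK4 for 5 hours, then transfected with LipidA for 24 hour. Supernatant IL-1a read by HTRF; values normalized to negative-control median, log-transformed robust z-scores.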
A general note: In TR-FRET formats the signal depends on donor and acceptor labels being close together.
Regarding CCAUCUCCUUUUCAGGGUGTT against Olfr747, the z-score is inactive: -1.83.

In the case of GGUUUUUAAGUGAUCCUUUTT against Slf2, the z-score was inactive: -0.786.

Take GCGUGGUGAUAGAAGAUAUTT against Pcdhgb8: the z-score is inactive: -0.981.

On to GUCUUUUAUACUUUGGUGGTT against Olfr1255, for which the z-score is inactive: -1.73.

For the sequence GGAGAAGAUGAGAGAAUUUTT against Tph1, the z-score was inactive: 1.34.

GGUUCUUAUUUCACUAUUCTT against Nmu: the z-score is inactive: -0.0688.

In the case of GGAAUGCUUUAUAAGUACATT against Tchp, the z-score was inactive: -1.34.

Regarding GGGCACUUAUUGCUACCUGTT against Wfs1, the z-score is inactive: 1.48.

On to GGUACUUCAUCGAUUCAGCTT against Zfp593, for which the z-score is inactive: -0.561.

Consider GGGUUUUGAGAUGUAAUGATT against Marchf8, for which the z-score was inactive: 0.0734.

Consider GGAAGUGGAGGAAAAGAAGTT against Pdcd7, for which the z-score was active: -2.52.

Consider GGUCUGUAUGUCAUUUAUCTT against Ywhag, for which the z-score is inactive: -0.208.

For GGCUUUUGAAAAUGACUACTT against Galnt5, the z-score was inactive: 0.198.

Turning to “GGAUAACCAUAUACUUCUGTT against 1110006O24Rik”, the z-score was inactive: 0.191.

For GGCACUUAUGACACCUACATT against Fkbp10, the z-score is inactive: -1.68.

Turning to GGCAGAUUUAGGGAAAUAATT against Cfap126, the z-score was inactive: -0.639.

In the case of CCCGAUCAUGCAUAGCUGATT against Decr2, the z-score was inactive: 1.21.

On to GGCUCACAAGGAAGAGAUCTT against Cstad, for which the z-score was inactive: -0.29.

For the sequence GCUAGGUCCCAAUUUUCACTT against Psg29, the z-score was inactive: -0.152.

On to GCUUCAUGCAAAAGUCACCTT against Prg3, for which the z-score is inactive: 0.648.

With CGUACAUUGCUCUUCUUUUTT against Atp2a3, the z-score is inactive: 1.17.

Turning to GGAGAUUGCCAAGCAUAAGTT against Pcyt2, the z-score was inactive: -0.918.

Consider GGAUAGCUCUAUCAACUCUTT against Serpinb3b, for which the z-score was inactive: -0.455.

GGCUUUACAGAUGUUAAAUTT against Ak3: the z-score is inactive: 0.133.

For the sequence CCACACUGAGUUUUACUACTT against Il22ra1, the z-score is inactive: -0.659.

For GGCAUCACUGAUGAAUGAATT against Pacsin2, the z-score is inactive: -0.585.

With CGAGAAAUCCUGUAAACGUTT against Zfp781, the z-score was inactive: -0.873.

With GGCUUUCCAGUGGAAUUCCTT against Lin9, the z-score is inactive: 0.839.

Consider “CCCGCUCAAGAUCCUGUUUTT against 2310011J03Rik”, for which the z-score was inactive: -0.231.

With GGCCCUAGAUGAGCACAAATT against Kcnh3, the z-score is active: 2.48.

GGAAUUGGUUCAGAAAUAUTT against Rtn4: the z-score was active: 3.09.

Turning to GGUUUACACGGUGGUAGAUTT against Ap2s1, the z-score is inactive: 1.89.

As to GGCUGCUGAUGAAAUGACUTT against Guca2b, the z-score is inactive: 0.185.

Turning to GGAUCUGUACACAGUUAGUTT against Olfr1123, the z-score is inactive: -1.21.

GGUAUUUCCGGAUCUUCAUTT against Smim7: the z-score is inactive: 0.0136.

GCCGAGUGAUAACAGUAGATT against Ndufa10: the z-score was inactive: 1.35.

With GGAUUAUCACUGCCUCUUATT against Olfr1446, the z-score is inactive: 1.28.

Take GGAGUUCAAUCCAACAAAATT against Atxn2l: the z-score was inactive: -1.4.

On to CCUGACGAUUGAGUAUCAUTT against Tubgcp4, for which the z-score was inactive: -0.267.

For the sequence GGUCAGUGACAUUAUCAAUTT against Vmn1r237, the z-score was inactive: 1.84.

Turning to GGAGAACACCAAAAAGGGCTT against Uncx, the z-score was inactive: -1.26.

On to CCCAAGUGAAAGUAAUGUCTT against Tardbp, for which the z-score was inactive: -2.

For the sequence GUCUUAUACACGUGUGGACTT against Cklf, the z-score was inactive: -0.198.

Turning to GGGUGUACAGAGGAUCCGATT against Atp2a3, the z-score is inactive: 0.187.

For GCUUAAAGAACUCUAUUCATT against Oaz3, the z-score was inactive: 1.02.

Turning to GGACAUAGUGAUGCUUCAGTT against Ubr2, the z-score is inactive: -1.18.

With GCUGUGAAGACGGACAAUATT against Pelo, the z-score is inactive: -1.58.

Regarding GGCAGAUGUCUGAUUUGGUTT against Zfp553, the z-score is inactive: -0.507.

Take GGUGGUCAAGAUCUUGGUGTT against Mcoln1: the z-score was inactive: -0.982.

As to CGUUUUCCACAAAGCAAAATT against Olfr1465, the z-score was inactive: 0.543.

Take GGAGAAUAACAAGAUAGUCTT against Pcdhgb8: the z-score was inactive: 0.0624.

In the case of GGAUGAACUAUACCAUGGCTT against Tmem132c, the z-score was inactive: 1.07.

With GGUGCUCAUCGACUGGAUCTT against Parva, the z-score is inactive: 0.102.

With GCUUGCUCCGGUAACAGCATT against Gata6, the z-score is inactive: -0.896.

As to GCAUCGCCAUCUAUAACUCTT against Slc25a48, the z-score is inactive: 0.113.

In the case of GGCCUUUGAGAAGAACAUUTT against Copz1, the z-score is active: -2.16.

For GGUUGUGUUUACCAUGAAGTT against Rps6ka6, the z-score is inactive: 0.684.

Consider GGAAAGAUGCCGGAAAAUCTT against Ppp1r14a, for which the z-score is inactive: -0.167.

For the sequence GCUCCGAAUUUUGCUGAUCTT against Galc, the z-score was inactive: 1.61.

As to GCCAUAGGCUCAUCUUUACTT against Ankib1, the z-score was inactive: -1.61.

In the case of GGAGCUGGAAGAGGUGUUUTT against Fam117a, the z-score was inactive: 0.596.

For the sequence CGCAGACAGAGACAACCUGTT against Casp6, the z-score was inactive: -0.73.

With GCACCAAGGUCCUACUUGATT against Lypd10, the z-score was inactive: 0.19.

Regarding CGCAUGUGAUUCCUUAUGATT against Sqor, the z-score is inactive: -0.735.

As for CGAUUGUCGGGUUUUGUUUTT against Nutf2, the z-score is active: -2.53.

CCUAGAGAGUUAGAAAUAATT against Clpx: the z-score was inactive: 1.57.

With GGCCGAAGCAUCUUCAAGATT against Wdr24, the z-score was inactive: 1.88.

In the case of GCUUAGUGAGGAGAUACAATT against Champ1, the z-score was inactive: 0.837.
